In US20210030857A1:
Results are given in words; binding and its absence hold for the method and conditions named. Some binding calls cover weakened binding; strength is not graded here.

Sequences of proteins named here, by UniProt entry; tags and fusion partners are left off. A change or cut given only in a name is not applied to a line headed by its entry.
UniProt Q86Z14: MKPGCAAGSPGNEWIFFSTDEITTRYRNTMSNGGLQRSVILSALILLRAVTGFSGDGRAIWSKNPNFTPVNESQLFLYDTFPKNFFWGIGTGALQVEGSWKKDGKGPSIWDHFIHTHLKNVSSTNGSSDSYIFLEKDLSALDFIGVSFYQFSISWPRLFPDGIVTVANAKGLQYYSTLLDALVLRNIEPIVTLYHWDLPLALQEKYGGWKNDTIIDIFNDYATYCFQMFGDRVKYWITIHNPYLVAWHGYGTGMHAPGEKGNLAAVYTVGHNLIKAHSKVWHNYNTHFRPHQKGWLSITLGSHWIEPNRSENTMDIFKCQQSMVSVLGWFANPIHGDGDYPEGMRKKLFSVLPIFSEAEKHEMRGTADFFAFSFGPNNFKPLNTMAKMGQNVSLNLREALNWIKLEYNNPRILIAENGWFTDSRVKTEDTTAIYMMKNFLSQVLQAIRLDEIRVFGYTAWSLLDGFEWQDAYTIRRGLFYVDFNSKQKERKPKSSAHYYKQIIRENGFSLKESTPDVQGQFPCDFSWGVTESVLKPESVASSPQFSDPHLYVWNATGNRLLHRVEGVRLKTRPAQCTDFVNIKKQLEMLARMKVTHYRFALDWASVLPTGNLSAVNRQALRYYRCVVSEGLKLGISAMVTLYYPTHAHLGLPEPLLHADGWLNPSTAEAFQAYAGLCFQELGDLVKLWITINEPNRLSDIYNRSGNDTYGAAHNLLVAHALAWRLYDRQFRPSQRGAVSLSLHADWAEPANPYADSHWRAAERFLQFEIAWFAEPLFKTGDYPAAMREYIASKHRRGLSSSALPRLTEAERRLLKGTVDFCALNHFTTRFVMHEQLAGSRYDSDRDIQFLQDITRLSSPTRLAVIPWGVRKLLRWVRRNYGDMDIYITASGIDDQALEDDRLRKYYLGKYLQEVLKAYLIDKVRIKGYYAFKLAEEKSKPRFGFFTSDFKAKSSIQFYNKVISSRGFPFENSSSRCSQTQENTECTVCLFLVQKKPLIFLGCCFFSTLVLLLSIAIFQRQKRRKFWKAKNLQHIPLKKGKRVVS

How the values were obtained:
[1] = target: human beta klotho protein (soluble, used in Biacore) (human) (UniProt Q86Z14); assay: Biacore SPR, antibody captured on anti-mouse Fc, KLB as analyte (1.56-25 nM), 25 C; KD column
[2] = target: human beta klotho expressed on cells (human) (UniProt Q86Z14); assay: FACS on transfected Expi293 cells

binding [1]	binding [2]	Binder
binds	–	antibody 5H23 (antibody, V domains shown) VH: QVQLQQSGPELVKPGALVKISCKASGYTFTSYDINWVKQRPGQGLEWIGWIYPGDGSTKYNEKFKGKATLTADKSSRTAYMQLSSLTSENSAVYFCARSDYYGSRSFAYWGQGTLVTVSA VL: DIVLTQSPASLAVSLGQRATISCRASKSVSTSGYVYMHWNQQKPGQPPKLLIYLASYLESGVPARFSGSGSGTDFTLNIHPVEEEDAAIYYCQHSRDLTFPFGGGTKLEIK
–	binds	humanized 5H23 antibody (VH SEQ ID NO: 271 and VL SEQ ID NO: 276) (antibody, V domains shown) VH: QVQLQQSGAEVKKPGASVKVSCKASGYTFTSYDINWVRQAPGQGLEWIGWIYPGDGSTKYNEKFKGKATITRDTSASTAYMELSSLRSEDTAVYFCARSDYYGSRSFAYWGQGTLVTVSS VL: DIVMTQSPDSLAVSLGERATINCRASKSVSTSGYVYMHWYQQKPGQPPKLLIYLASYLESGVPDRFSGSGSGTDFTLTISSVQAEDVAVYYCQHSRDLTFPFGGGTKLEIK
